Here are results for 5 molecules from article PMC12866828.

Amino acid sequences for entries named in this document (tags omitted). A change or cut given only in a name is not applied to a line headed by its entry. Residues count along the entry.
UniProt P50592: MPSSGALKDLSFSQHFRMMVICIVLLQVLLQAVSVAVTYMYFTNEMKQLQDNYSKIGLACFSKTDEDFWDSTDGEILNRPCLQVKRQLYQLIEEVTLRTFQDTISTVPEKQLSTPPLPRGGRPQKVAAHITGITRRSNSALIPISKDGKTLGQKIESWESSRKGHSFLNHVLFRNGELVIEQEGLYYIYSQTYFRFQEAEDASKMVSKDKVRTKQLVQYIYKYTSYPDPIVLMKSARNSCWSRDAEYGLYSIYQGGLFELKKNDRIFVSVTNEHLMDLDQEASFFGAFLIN
truncated HA‐TRAIL, aa 1‐126: residues 1-126 of P50592
UniProt Q9DBY1: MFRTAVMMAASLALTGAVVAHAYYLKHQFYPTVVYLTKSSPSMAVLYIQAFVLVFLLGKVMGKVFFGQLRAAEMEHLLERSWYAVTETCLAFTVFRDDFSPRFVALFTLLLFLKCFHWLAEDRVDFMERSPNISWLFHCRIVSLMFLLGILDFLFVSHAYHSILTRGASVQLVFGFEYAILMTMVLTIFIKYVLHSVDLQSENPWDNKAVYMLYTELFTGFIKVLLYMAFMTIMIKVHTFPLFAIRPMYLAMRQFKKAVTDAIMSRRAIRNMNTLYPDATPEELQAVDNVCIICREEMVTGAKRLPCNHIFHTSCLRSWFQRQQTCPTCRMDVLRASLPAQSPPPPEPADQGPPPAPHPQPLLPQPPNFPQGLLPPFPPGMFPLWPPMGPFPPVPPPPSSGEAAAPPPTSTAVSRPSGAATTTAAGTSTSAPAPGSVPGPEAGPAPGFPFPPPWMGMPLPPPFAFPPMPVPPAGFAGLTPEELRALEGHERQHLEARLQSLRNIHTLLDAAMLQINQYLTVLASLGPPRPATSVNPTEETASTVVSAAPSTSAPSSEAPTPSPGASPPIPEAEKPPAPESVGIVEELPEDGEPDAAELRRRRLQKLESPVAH

Assay [1] deals with Tumor necrosis factor (TNF)‐related apoptosis‐inducing ligand (TRAIL) (mouse (endogenous in MLE-12)) (UniProt P50592). The assay can be described thus: co-IP; cells in IP lysis buffer; supernatants with protein A/G agarose beads and antibodies at 4 °C overnight; washed with NaCl buffer; immunoblot; cells with or without irradiation or TMEM131 knockdown. In general terms: A western blot detects proteins with antibodies after separation by electrophoresis.

The target in assay [2] is truncated HA‐TRAIL, aa 1‐126 (UniProt P50592). Put plainly: co-IP; flag-TMEM131 and HA-TRAIL, each full length or truncated, expressed from plasmids; immunoblot; cells not given.
For another assay, the target named is HA‐TRAIL, full length (UniProt P50592). Described as above.

No constants are given. Whether binding was seen depends on the method and setting. In cells and extracts the contact can be indirect. Some entries that bind do so weakly or less than the wild type. For some assays here: Tags and fused reporters may be left off the sequences shown.

Regarding “E3 ubiquitin ligase HMG‐CoA reductase degradation protein 1 (HRD1) (from UniProt Q9DBY1 1-612) (enzyme)”, the binding result in assay [1] was “binds”.

With “flag‐TMEM131, full length (from UniProt O70472 21-1877)”, the binding entry in assay [2] was “binds”. As to TMEM131 (from UniProt O70472 21-1877), in assay [1], the binding entry is “binds”.

B1: ER degradation enhancing mannosidase (EDEM) 2 (protein, UniProt Q8BJT9 22-577)
chain: APGPDGTAPDPAHYRERVKAMFYHAYDSYLENAFPYDELRPLTCDGHDTWGSFSLTLIDALDTLLILGNTSEFQRVVEVLQDNVDFDIDVNASVFETNIRVVGGLLSAHLLSKKAGVEVEAGWPCSGPLLRMAEEAARKLLPAFQTPTGMPYGTVNLLHGVNPGETPVTCTAGIGTFIVEFATLSSLTGDPVFEDVARVALMRLWESRSDIGLVGNHIDVLTGKWVAQDAGIGAGVDSYFEYLVKGAILLQDKKLMAMFLEYNKAIRNYTHFDDWYLWVQMYKGTVSMPVFQSLEAYWPGLQSLIGDIDNAMRTFLNYYTVWKQFGGLPEFYNIPQGYTVEKREGYPLRPELIESAMYLYRATGDPTLLELGRDAVESIEKISKVECGFATIKDLRDHKLDNRMESFFLAETVKYLYLLFHPNNFIHNNGSTFDSVMTPHGECILGAGGYIFNTEAHPIDPAALHCCRRLKEEQWEVEDLIKEFYSLKQSRPKRAQRKTVRSGPWEPQSGPATLSSPANQPREKQPAQQRTPLLSCPSQPFTSKLALLGQVFLDSS
With B1, in assay [1], the binding result was “binds”.

B2: truncated flag‐TMEM131, aa 1‐106 (domain or fragment, UniProt O70472 21-106)
chain: AGLEPAAGRGGGPRSAAAGLLGALHLVMTLVVAAARAEKEAFIQSESIIEVLRFDDGGLLQTETTLGLGSYQQKSISLYRGNCRPI
As for B2, in the assay with HA‐TRAIL, full length, the binding entry is on record as “binds”.
